# The targets with a hit were mostly taken out for another list; the other results follow. This is a noisy data set. This is a selection; strong and weak results do not stand in their true shares.
# The chains behind the UniProt entries cited, without tags or fusion partners. Where a name states a change or a piece, a line headed by the entry shows the natural chain unless it says otherwise.
# UniProt P17174: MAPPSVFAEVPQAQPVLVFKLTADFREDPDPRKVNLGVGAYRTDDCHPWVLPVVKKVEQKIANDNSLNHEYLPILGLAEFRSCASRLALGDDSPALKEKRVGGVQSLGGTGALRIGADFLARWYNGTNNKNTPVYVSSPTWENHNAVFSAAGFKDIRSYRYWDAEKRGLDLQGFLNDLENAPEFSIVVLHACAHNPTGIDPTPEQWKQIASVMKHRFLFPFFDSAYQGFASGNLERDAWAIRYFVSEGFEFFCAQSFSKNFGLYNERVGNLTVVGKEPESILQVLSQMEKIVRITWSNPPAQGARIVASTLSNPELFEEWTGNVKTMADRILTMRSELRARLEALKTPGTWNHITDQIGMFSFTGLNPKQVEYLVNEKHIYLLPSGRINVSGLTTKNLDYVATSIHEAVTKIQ
# UniProt P08670, whole entry: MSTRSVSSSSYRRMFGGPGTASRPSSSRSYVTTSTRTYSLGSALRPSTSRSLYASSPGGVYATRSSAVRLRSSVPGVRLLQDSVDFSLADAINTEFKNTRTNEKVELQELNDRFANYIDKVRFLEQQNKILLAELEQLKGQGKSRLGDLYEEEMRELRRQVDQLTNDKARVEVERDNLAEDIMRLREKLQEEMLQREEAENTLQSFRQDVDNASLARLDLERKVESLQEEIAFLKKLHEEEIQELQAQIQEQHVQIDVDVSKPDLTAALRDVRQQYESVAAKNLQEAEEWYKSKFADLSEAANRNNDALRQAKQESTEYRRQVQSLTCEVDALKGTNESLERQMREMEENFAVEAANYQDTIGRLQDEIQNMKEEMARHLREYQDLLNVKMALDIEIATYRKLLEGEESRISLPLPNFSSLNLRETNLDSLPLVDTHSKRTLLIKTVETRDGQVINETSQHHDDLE
# UniProt P07954: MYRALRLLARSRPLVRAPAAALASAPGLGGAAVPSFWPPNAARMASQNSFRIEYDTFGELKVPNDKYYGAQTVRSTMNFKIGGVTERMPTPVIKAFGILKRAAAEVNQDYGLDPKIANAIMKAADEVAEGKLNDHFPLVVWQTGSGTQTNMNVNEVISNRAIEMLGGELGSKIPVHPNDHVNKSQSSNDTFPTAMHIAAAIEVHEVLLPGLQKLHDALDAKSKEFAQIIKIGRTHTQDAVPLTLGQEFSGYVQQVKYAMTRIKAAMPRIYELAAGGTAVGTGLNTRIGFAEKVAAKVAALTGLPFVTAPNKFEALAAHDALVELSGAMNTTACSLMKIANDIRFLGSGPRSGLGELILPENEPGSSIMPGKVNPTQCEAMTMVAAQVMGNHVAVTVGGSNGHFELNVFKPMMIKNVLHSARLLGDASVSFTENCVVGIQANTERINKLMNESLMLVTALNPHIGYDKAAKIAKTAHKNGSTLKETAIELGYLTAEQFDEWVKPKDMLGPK
# UniProt P14854, whole entry: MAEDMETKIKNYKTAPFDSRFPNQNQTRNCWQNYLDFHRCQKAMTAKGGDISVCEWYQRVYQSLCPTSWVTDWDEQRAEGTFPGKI
# UniProt P09211: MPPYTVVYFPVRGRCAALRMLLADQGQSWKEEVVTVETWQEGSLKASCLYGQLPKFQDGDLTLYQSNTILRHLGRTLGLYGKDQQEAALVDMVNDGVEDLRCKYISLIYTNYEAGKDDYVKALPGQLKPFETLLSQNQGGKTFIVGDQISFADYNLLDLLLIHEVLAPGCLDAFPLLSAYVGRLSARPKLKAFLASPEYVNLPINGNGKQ
# UniProt P17544: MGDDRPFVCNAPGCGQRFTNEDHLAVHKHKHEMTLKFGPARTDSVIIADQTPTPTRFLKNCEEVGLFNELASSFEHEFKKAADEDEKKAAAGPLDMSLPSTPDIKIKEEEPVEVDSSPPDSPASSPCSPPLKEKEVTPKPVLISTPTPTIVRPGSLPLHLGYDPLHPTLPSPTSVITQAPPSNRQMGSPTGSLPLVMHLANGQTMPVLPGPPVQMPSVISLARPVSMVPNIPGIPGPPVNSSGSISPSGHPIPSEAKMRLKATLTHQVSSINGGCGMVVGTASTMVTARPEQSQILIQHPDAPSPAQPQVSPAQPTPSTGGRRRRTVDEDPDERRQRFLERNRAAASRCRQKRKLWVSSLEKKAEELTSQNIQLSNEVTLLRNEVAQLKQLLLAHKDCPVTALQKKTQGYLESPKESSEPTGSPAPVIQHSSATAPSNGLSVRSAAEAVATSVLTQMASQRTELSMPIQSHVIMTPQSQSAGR
# UniProt P17844: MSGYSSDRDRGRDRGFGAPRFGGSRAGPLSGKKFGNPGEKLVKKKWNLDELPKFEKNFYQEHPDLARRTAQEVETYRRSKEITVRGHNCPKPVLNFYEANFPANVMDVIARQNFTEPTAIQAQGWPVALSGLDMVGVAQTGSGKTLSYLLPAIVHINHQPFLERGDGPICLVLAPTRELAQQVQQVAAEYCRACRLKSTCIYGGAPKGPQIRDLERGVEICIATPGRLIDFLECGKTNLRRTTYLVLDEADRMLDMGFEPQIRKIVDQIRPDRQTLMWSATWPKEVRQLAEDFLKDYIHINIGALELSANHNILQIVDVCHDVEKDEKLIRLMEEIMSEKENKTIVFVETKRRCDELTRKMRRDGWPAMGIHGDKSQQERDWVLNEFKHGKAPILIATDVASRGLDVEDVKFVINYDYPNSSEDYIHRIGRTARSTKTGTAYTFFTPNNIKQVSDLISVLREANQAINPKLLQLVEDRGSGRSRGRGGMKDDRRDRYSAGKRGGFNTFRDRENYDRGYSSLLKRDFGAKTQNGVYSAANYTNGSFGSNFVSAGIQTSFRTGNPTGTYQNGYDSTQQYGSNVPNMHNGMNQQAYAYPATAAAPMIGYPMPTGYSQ
# UniProt P09874, whole entry, looked up: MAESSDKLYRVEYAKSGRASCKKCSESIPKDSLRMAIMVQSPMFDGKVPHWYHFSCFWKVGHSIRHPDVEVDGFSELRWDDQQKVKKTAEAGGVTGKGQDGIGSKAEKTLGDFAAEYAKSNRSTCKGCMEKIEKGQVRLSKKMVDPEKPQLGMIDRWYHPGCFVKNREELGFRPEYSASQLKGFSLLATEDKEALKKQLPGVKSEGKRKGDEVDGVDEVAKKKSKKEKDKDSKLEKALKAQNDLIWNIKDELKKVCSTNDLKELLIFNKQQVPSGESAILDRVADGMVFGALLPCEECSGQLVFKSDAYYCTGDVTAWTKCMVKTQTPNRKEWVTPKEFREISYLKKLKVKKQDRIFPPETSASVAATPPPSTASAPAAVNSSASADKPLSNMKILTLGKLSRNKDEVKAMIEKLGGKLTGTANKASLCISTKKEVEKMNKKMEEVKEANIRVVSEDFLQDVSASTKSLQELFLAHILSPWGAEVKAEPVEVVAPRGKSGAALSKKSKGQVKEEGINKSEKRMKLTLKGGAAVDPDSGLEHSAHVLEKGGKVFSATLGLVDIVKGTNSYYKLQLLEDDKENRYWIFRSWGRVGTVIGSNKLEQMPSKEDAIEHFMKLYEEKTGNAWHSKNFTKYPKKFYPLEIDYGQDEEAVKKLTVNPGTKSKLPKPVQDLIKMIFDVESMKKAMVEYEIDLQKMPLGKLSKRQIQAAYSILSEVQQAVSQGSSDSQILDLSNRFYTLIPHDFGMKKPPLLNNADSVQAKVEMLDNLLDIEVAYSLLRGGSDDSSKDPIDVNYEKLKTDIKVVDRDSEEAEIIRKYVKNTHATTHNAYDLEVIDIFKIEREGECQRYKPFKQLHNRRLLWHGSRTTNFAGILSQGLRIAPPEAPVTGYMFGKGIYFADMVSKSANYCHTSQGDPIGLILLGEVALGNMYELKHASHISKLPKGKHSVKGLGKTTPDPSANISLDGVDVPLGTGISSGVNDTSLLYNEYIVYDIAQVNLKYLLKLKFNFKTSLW
# UniProt P09622, whole entry, looked up: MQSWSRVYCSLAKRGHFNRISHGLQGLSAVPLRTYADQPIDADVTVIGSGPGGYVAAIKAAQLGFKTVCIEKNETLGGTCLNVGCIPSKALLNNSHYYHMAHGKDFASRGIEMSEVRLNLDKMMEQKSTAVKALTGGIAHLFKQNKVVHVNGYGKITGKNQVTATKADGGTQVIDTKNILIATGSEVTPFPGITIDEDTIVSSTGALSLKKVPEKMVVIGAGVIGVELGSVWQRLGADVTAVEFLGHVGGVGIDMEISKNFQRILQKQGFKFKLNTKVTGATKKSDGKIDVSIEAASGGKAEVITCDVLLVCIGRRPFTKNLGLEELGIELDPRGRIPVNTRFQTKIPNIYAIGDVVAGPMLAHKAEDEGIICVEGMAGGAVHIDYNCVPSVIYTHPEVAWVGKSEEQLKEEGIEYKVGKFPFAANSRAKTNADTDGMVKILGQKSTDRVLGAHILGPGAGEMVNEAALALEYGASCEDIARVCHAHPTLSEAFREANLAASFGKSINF
# UniProt P11388: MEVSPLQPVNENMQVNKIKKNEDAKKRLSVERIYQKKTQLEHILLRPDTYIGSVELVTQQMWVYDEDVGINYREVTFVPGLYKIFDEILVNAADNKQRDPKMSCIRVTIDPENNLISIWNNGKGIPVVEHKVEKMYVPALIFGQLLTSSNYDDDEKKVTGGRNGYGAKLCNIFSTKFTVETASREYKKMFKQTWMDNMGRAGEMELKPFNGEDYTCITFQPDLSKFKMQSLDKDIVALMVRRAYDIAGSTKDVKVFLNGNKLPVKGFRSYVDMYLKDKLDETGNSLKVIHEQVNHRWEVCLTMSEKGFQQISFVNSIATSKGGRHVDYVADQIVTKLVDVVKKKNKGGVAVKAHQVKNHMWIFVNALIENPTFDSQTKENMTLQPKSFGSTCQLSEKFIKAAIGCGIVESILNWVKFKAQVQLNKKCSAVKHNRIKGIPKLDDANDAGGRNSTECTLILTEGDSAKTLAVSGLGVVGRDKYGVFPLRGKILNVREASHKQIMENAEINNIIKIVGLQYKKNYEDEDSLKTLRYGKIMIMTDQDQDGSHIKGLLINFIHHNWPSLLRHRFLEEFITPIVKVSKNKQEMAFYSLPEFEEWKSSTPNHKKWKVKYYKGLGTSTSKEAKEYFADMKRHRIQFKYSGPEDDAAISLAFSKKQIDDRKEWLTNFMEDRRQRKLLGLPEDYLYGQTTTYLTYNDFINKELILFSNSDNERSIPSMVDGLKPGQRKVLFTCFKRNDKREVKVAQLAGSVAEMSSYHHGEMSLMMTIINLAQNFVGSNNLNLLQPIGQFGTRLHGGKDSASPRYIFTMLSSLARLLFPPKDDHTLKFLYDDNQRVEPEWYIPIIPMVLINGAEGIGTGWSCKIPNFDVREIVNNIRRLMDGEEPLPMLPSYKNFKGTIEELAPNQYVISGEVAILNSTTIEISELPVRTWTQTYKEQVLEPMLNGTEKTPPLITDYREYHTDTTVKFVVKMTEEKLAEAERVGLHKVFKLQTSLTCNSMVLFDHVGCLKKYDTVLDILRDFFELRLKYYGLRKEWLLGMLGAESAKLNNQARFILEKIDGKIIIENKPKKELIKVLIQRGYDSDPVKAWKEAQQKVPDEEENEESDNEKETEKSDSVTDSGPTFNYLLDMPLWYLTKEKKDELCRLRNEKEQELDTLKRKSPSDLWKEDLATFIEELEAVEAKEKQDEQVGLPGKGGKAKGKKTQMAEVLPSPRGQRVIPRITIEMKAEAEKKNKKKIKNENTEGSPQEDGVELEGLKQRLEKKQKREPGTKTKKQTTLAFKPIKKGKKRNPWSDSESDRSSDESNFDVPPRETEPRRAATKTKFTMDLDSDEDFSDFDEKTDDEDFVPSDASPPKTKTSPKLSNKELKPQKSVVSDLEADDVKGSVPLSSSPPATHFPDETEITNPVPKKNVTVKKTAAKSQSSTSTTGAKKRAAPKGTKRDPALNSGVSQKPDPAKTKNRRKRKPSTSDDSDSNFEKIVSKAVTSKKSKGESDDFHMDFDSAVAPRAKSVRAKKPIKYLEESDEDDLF
# UniProt P09110: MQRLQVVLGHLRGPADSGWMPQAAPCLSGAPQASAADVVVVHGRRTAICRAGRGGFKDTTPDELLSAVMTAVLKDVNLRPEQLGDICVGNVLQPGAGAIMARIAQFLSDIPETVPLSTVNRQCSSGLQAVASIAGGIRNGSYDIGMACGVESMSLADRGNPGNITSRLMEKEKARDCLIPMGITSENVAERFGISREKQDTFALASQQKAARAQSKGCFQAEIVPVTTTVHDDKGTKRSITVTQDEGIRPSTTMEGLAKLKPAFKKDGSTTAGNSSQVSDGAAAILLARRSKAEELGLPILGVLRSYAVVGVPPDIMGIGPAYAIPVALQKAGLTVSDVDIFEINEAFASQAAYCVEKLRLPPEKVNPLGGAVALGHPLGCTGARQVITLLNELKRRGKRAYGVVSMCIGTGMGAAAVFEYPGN
# UniProt P10768: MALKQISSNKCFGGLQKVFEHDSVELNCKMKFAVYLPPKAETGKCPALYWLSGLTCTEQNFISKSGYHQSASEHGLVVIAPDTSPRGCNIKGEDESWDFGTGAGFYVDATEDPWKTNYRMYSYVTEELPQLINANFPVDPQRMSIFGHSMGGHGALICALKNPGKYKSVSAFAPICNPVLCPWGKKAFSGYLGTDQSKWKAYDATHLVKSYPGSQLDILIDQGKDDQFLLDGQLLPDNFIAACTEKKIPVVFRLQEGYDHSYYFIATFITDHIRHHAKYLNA
# Compound: COC(=O)/C=C/c1ccccc1 [methyl cinnamate]
# Experiment: log2 ratio of iodoacetamide-alkyne labeling of the cysteine site, DMSO over compound (competition); higher = stronger covalent engagement of the cysteine by the compound, active = 1 or more
# Details: 500 µM; treatment time 1 h; system: HEK293T cell lysate
# How it was run: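 The log2 competition ratio per cysteine is defined as mean reporter intensity in control channels over mean reporter intensity in compound channels. Lysate from HEK293T cells (2 mg/mL) received electrophile (500 µM) or vehicle for 1 h at ambient temperature, followed by iodoacetamide alkyne for 1 h. Samples were clicked to sCIP-TMT reagents, pooled, trypsin-digested overnight at 37 °C, streptavidin-enriched, acid-eluted and run on Orbitrap Eclipse LC-MS/MS with FAIMS, with quantification in FragPipe. Three replicates with duplicate channels were used, and any cysteine quantified in only one replicate was excluded.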
row,Target,log2 ratio of iodoacetamide-alkyne labeling
1,Q95604 C188 (UniProt P10321),inactive: 0.00524
2,GOT1 C46 (UniProt P17174),inactive: 0.0275
3,VIM C328 (UniProt P08670),inactive: 0.0263
4,EEF2 C67 (UniProt P13639),inactive: -0.203
5,HSP90AA1 C597 (UniProt P07900),inactive: 0.00249
6,ETFA C109 (UniProt P13804),inactive: 0.182
7,IDE C974 (UniProt P14735),inactive: 0.103
8,EEF2 C751 (UniProt P13639),inactive: 0.0624
9,G6PD C385 (UniProt P11413),inactive: 0.152
10,PLS3 C104 (UniProt P13797),inactive: 0.588
11,RPS2 C143 (UniProt P15880),inactive: 0.107
12,UniProt P14618_C423,inactive: 0.0924
13,EEF2 C651 (UniProt P13639),inactive: 0.169
14,FH C333 (UniProt P07954),inactive: 0.387
15,COX6B1 C65 (UniProt P14854),inactive: -0.067
16,UniProt P0DN79_C15,inactive: 0.247
17,UniProt P0DMV8_C574,inactive: 0.154
18,LGALS1 C43 (UniProt P09382),inactive: -0.195
19,GSTP1 C48 (UniProt P09211),inactive: 0.014

row,Target,log2 ratio of iodoacetamide-alkyne labeling
1,ATF7 C61 (UniProt P17544),inactive: -0.304
2,GSPT1 C261 (UniProt P15170),inactive: 0.146
3,CTSB C319 (UniProt P07858),inactive: 0.166
4,IGF2R C2232 (UniProt P11717),inactive: 0.42
5,ATP2A2 C560 (UniProt P16615),inactive: 0.00044
6,DDX5 C170 (UniProt P17844),inactive: 0.109
7,UniProt P10155_C38,inactive: 0.357
8,EEF2 C693 (UniProt P13639),inactive: 0.164
9,PARP1 C908 (UniProt P09874),inactive: -0.249
10,PARP1 C162 (UniProt P09874),inactive: 0.135
11,DLD C85 (UniProt P09622),inactive: 0.131
12,TOP2A C405 (UniProt P11388),inactive: 0.0727
13,ACAA1 C177 (UniProt P09110),inactive: 0.199
14,EEF2 C369 (UniProt P13639),inactive: 0.106
15,HSP90AA1 C481 (UniProt P07900),inactive: 0.229
16,SNRPB C19 (UniProt P14678),inactive: 0.231
17,PTPN2 C330 (UniProt P17706),inactive: 0.403
18,ESD C181 (UniProt P10768),inactive: -0.134

# Single values from the results shown:
# Value for Q95604 C188 (UniProt P10321) under log2 ratio of iodoacetamide-alkyne labeling: inactive: 0.00524
# Value for EEF2 C67 (UniProt P13639) under log2 ratio of iodoacetamide-alkyne labeling: inactive: -0.203
